In patent US20220047631A1:
These are yes or no findings as the source states them, for the method shown. Some results given as binding are weak or reduced against the parent protein; the word gives no strength.

Key:
[1] = molecular target: Tn-OTS8 peptide tetramer (murine); test: yeast display, peptide tetramers (FIG. 35)
[2] = molecular target: Tn-OTS8 peptide tetramer (murine); test: yeast display, 10 nM peptide tetramer, flow cytometry
[3] = molecular target: Tn-OTS8 peptide tetramer (murine); test: flow cytometry of yeast-displayed clone with 10 nM OTS8p tetramer [B]
[4] = molecular target: T1, Tn-EVI2B glycopeptide, immobilized; test: condition: last point, right of the 10000 nM tick (about 50000 nM peptide coating); ELISA; x axis = coating concentration of the peptide; 237Ab fixed at 10 µg/ml [left]
T1 sequence (peptide, Tn (GalNAc); biotin): STQPTSTV

[5] = molecular target: T2, Tn-MUC1 glycopeptide, immobilized (human); test: as above
T2 sequence (peptide, Tn (GalNAc); biotin): STAPPAHG

[6] = molecular target: T3, Tn-LAMP; test: as above
T3 sequence (peptide, T2, GalNAc (T*); biotinylated): TTAPPAPP

[7] = molecular target: T4, Tn-PCDH; test: as above
T4 sequence (peptide, T2, GalNAc (T*); biotinylated): GTSASLVY

[8] = molecular target: T5, Tn-TFRC; test: as above
T5 sequence (peptide, T2, GalNAc (T*); biotinylated): GTESPVRE

[9] = molecular target: T6, Tn-ZIP6 glycopeptide, immobilized; test: as above
T6 sequence (peptide, Tn (GalNAc); biotin): STPPSVTS

[10] = molecular target: T7, Tn-PDXL; test: as above
T7 sequence (peptide, T2, GalNAc (T*); biotinylated): STKAEHLT

B1: yeast-displayed 237 scFv TNGK mutant (scFv, not shown: large carriers; small tags and cut ends)
scFv: DIQLTQSPLSLPVSLGDQASISCRSSQSLVHSNGNTYLHWYLQKPGQSPKLLIYKVSNRFSGVPDRFSGSGSGTDFTLKISSVEAEDLGVYFCSQTNGKPTFGGGTKLEIKGGGGSGGGGSGGGGSQVQLQQSGGGLVQPGGSMKIFCAASGFTFSDAWMDWVRQSPEKGLEWVAEIRNKANNHETYYAESVKGRFTITRDDSKSRMSLQMNSLRAEDTGIYYCSGGKVRNAYWGQGTTVTVSS
binding [1]: binds
binding [2]: binds
binding [3]: binds

B2: 237 monoclonal antibody (antibody, V domains shown)
VH: QVQLQQSGGGLVQPGGSMKIFCAASGFTFSDAWMDWVRQSPEKGLEWVAEIRNKANNHETYYAESVKGRFTITRDDSKSRMSLQMNSLRAEDTGIYYCSGGKVRNAYWGQGTTVTVSS
VL: DIQLTQSPLSLPVSLGDQASISCRSSQSLVHSNGNTYLHWYLQKPGQSPKLLIYKVSNRFSGVPDRFSGSGSGTDFTLKISSVEAEDLGVYFCSQSTHVPTFGGGTKLEIK
binding [4]: no binding
binding [5]: no binding
binding [6]: no binding
binding [7]: no binding
binding [8]: no binding
binding [9]: no binding
binding [10]: no binding
